Experimental data as given in publication PMC11792579.

Protein sequences, listed by entry. Tags and fused reporters are not part of them.
UniProt O95071: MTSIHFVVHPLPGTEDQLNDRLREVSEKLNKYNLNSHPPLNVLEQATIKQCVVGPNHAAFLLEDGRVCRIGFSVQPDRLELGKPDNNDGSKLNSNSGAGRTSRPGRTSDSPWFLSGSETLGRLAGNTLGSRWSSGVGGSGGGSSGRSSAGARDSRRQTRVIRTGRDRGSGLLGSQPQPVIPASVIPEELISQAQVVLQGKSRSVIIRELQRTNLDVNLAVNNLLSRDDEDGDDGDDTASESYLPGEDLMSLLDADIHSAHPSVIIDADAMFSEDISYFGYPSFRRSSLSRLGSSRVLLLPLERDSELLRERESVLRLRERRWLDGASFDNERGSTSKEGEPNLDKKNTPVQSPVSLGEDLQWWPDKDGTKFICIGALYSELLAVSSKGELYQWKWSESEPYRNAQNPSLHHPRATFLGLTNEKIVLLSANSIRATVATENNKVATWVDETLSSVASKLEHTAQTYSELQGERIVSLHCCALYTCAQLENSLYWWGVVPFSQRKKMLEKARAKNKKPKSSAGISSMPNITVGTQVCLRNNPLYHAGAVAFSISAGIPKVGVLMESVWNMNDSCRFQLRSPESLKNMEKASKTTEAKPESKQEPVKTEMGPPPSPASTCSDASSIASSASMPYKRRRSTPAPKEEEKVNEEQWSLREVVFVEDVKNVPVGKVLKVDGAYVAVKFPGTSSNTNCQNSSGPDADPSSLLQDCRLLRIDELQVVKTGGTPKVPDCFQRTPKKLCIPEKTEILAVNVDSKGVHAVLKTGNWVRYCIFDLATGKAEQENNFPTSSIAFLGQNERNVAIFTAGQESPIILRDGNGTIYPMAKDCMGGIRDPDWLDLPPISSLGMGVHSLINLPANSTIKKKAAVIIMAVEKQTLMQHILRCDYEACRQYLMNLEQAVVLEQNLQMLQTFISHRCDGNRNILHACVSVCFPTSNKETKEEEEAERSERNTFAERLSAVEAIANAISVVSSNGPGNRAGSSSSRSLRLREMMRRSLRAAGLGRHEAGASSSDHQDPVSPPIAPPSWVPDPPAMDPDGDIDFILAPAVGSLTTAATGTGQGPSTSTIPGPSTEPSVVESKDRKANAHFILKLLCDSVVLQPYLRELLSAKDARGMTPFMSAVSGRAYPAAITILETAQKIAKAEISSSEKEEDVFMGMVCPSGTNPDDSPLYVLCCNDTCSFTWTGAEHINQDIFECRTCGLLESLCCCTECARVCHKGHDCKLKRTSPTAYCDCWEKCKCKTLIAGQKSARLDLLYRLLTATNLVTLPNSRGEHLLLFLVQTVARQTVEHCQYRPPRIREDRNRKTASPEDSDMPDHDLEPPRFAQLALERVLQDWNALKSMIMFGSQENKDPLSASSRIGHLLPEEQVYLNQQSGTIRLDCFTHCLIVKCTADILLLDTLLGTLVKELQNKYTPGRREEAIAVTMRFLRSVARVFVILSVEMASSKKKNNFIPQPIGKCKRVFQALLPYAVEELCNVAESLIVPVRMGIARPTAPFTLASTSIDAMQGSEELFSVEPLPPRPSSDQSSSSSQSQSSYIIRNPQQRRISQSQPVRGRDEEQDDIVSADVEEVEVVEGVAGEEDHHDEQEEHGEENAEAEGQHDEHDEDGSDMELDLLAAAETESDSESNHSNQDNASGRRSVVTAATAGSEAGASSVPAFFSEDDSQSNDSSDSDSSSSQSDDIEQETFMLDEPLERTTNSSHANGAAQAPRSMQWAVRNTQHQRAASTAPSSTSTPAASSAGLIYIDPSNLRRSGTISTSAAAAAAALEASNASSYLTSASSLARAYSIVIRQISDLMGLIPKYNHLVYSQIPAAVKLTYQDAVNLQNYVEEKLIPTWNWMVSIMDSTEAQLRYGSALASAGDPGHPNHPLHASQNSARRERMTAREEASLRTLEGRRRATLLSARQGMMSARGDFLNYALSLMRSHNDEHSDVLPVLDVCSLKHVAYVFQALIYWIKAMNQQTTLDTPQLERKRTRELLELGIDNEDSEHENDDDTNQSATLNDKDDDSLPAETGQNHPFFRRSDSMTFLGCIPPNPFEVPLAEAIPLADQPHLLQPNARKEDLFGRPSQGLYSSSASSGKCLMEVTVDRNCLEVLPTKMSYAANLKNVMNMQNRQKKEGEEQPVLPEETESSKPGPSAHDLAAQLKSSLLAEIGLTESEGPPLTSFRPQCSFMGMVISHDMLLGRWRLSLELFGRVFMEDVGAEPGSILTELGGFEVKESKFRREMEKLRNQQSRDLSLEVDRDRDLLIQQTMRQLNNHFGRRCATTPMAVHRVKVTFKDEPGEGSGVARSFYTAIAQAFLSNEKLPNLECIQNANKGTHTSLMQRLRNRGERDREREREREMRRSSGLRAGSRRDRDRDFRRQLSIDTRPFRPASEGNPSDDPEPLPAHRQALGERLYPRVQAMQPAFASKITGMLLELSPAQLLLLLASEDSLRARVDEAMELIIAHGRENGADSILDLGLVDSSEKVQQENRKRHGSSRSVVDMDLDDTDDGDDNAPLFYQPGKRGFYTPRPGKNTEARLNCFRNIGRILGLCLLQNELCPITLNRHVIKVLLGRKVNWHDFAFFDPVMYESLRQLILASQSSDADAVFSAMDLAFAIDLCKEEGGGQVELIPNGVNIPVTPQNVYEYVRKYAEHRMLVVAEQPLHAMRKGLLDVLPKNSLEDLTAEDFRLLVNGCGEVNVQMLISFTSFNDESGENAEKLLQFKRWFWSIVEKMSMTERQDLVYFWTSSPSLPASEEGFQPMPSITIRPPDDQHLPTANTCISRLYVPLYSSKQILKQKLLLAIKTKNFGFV

Target: T1, N-acetyltransferase 10 (NAT10), endogenous (human (endogenous in SW620)) (UniProt Q9H0A0)
T1 sequence: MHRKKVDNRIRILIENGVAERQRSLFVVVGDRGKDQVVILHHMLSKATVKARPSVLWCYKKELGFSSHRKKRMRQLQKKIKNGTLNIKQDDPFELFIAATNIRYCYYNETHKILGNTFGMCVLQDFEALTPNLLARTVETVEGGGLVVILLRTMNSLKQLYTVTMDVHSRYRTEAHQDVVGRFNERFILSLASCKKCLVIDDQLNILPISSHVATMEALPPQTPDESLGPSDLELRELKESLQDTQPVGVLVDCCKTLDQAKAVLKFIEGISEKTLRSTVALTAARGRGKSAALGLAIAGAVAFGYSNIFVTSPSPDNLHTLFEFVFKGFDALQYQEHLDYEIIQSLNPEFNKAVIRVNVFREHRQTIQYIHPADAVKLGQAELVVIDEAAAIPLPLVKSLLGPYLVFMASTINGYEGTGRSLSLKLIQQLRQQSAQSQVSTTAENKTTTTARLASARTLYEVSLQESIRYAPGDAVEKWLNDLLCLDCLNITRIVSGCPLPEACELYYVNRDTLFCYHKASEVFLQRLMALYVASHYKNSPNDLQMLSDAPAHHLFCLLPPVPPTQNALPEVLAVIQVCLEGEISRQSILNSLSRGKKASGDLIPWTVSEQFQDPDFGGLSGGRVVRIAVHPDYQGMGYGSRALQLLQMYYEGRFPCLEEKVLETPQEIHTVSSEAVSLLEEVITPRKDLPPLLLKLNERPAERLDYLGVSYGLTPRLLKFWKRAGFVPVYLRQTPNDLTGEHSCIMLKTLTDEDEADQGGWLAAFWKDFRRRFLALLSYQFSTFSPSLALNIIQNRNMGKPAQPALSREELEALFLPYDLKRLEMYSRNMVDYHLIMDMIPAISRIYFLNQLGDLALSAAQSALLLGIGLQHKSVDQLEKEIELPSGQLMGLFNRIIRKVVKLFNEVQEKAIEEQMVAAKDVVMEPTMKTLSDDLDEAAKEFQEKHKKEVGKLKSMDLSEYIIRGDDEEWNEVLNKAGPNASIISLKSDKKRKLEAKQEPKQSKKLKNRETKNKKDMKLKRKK
Test: affinity purification with mass spectrometry; NAT10-specific complexes from SW620 cells (shNAT10 or control vectors), LC-MS; details in ref. 12

Substance: Ubiquitin protein ligase E3 component n-recognin 5 (UBR5), endogenous (from UniProt O95071 1-2799)
- binding: binds

These are yes or no findings as the source states them, for the method shown. In cells and extracts the contact can be indirect. These calls come from enrichment with a bait or labelling near it, and not all partners need be listed.
